Measured values as given in publication PMC8968644.

The chains behind the UniProt entries cited, without tags or fusion partners. Where a name states a change or a piece, a line headed by the entry shows the natural chain unless it says otherwise.
UniProt Q8N302: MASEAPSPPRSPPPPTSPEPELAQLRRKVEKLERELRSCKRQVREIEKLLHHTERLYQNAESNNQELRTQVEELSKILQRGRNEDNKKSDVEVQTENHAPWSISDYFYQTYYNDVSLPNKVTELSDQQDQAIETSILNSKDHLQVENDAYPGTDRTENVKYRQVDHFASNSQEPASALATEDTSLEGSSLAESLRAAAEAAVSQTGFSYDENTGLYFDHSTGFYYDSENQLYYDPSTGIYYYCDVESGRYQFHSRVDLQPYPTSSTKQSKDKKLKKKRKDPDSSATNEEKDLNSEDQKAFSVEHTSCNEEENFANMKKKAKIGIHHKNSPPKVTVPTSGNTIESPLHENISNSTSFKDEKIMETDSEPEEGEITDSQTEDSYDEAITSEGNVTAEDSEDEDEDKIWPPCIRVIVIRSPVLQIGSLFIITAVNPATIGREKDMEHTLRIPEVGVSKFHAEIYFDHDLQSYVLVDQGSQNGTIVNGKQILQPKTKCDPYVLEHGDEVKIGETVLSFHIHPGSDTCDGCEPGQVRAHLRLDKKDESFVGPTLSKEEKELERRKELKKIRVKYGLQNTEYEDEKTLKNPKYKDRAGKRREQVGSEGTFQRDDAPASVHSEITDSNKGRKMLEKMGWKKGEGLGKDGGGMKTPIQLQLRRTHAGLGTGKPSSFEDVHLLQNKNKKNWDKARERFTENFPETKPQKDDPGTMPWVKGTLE

How the values were obtained:
[1] = molecular target: AGGF1-RAD (AGGF1 with the RDD motif mutated into RAD) (UniProt Q8N302); assay: co-IP; HeLa cells cotransfected with the two expression plasmids for 48 h, lysed; lysate preabsorbed with Protein A/G PLUS-agarose; 1.5 μg immunoprecipitation antibody (anti-AGGF1; reciprocal with anti-integrin for the wild type) or anti-mouse IgG overnight at 4 °C; Western blot for the partner
[2] = molecular target: AGGF1-RDA (AGGF1 with the RDD motif mutated into RDA) (UniProt Q8N302); assay: as above

binding [1]: binds | binding [2]: binds
B1: Integrin α7 (ITGA7) (receptor, UniProt Q13683 34-1181)
chain: FNLDVMGALRKEGEPGSLFGFSVALHRQLQPRPQSWLLVGAPQALALPGQQANRTGGLFACPLSLEETDCYRVDIDQGADMQKESKENQWLGVSVRSQGPGGKIVTCAHRYEARQRVDQILETRDMIGRCFVLSQDLAIRDELDGGEWKFCEGRPQGHEQFGFCQQGTAAAFSPDSHYLLFGAPGTYNWKGTARVELCAQGSADLAHLDDGPYEAGGEKEQDPRLIPVPANSYFGLLFVTNIDSSDPDQLVYKTLDPADRLPGPAGDLALNSYLGFSIDSGKGLVRAEELSFVAGAPRANHKGAVVILRKDSASRLVPEVMLSGERLTSGFGYSLAVADLNSDGWPDLIVGAPYFFERQEELGGAVYVYLNQGGHWAGISPLRLCGSPDSMFGISLAVLGDLNQDGFPDIAVGAPFDGDGKVFIYHGSSLGVVAKPSQVLEGEAVGIKSFGYSLSGSLDMDGNQYPDLLVGSLADTAVLFRARPILHVSHEVSIAPRSIDLEQPNCAGGHSVCVDLRVCFSYIAVPSSYSPTVALDYVLDADTDRRLRGQVPRVTFLSRNLEEPKHQASGTVWLKHQHDRVCGDAMFQLQENVKDKLRAIVVTLSYSLQTPRLRRQAPGQGLPPVAPILNAHQPSTQRAEIHFLKQGCGEDKICQSNLQLVRARFCTRVSDTEFQPLPMDVDGTTALFALSGQPVIGLELMVTNLPSDPAQPQADGDDAHEAQLLVMLPDSLHYSGVRALDPAEKPLCLSNENASHVECELGNPMKRGAQVTFYLILSTSGISIETTELEVELLLATISEQELHPVSARARVFIELPLSIAGMAIPQQLFFSGVVRGERAMQSERDVGSKVKYEVTVSNQGQSLRTLGSAFLNIMWPHEIANGKWLLYPMQVELEGGQGPGQKGLCSPRPNILHLDVDSRDRRRRELEPPEQQEPGERQEPSMSWWPVSSAEKKKNITLDCARGTANCVVFSCPLYSFDRAAVLHVWGRLWNSTFLEEYSAVKSLEVIVRANITVKSSIKNLMLRDASTVIPVMVYLDPMAVVAEGVPWWVILLAVLAGLLVLALLVLLLWKMGFFKRAKHPEATVPQYHAVKIPREDRQQFKEEKTGTILRNNWGSPRREGPDAHPILAADGHPELGPDGHPGPGTA

These are yes or no findings as the source states them, for the method shown. In cells and extracts the contact can be indirect. A result given as binding can be weak or reduced; the word gives no strength.
